Measurements from US11225470B2, “Tetrazolinone compounds and its use as pest control agents” (SUMITOMO CHEMICAL COMPANY, LIMITED, priority 2016, dated 2022).
Some of these results come from one statement about several compounds together.

How the values were obtained:
Format in all cases: in vivo
[1] = test system: barley net blotch fungi (Pyrenophora teres); test: barley net blotch test; conditions: 200 ppm foliar spray, inoculation after 2 days; barley cv MIKAMO GOLDEN
[2] = test system: kidney bean sclerotinia rot fungi (Sclerotinia sclerotiorum); test: kidney bean sclerotinia rot test; conditions: kidney bean cv NAGAUZURA SAITO, observed after four days
[3] = test system: wheat leaf blotch fungi (Septoria tritici); test: wheat leaf blotch test, spraying after inoculation; conditions: 200 ppm foliar spray 3 days after inoculation; wheat cv APOGEE
[4] = test system: cucumber downy mildew fungi (Pseudoperonospora cubensis); test: cucumber downy mildew test; conditions: inoculation after 1 day, cucumber cv SAGAMIHANJIRO
[5] = test system: wheat leaf blotch fungi (Septoria tritici); test: wheat leaf blotch test, spraying before inoculation; conditions: inoculation after 4 days
[6] = test system: soybean frogeye leaf spot disease fungi (Cercospora sojina); test: soybean frogeye leaf spot test, spraying before inoculation; conditions: inoculation after 2 days; for lesion area compared to the lesion area in an untreated soybean: 200 ppm foliar spray, soybean cv TACHINAGAHA
[7] = test system: soybean powdery mildew fungi (Erysiphe diffusa); test: soybean powdery mildew test, spraying after inoculation; conditions: 200 ppm foliar spray 2 days after inoculation; soybean cv KUROSENGOKU
[8] = test system: barley scald fungi (Rhynchosporium secalis); test: barley scald test; conditions: 500 ppm foliar spray, inoculation after 2 days; barley cv NISHINOHOSHI
[9] = test system: wheat brown rust fungi (Puccinia recondita); test: wheat brown rust test; conditions: inoculation after 5 days, wheat cv SHIROGANE
[10] = test system: soybean rust fungi (Phakopsora pachyrhizi); test: soybean rust test, spraying before inoculation; conditions: 200 ppm foliar spray, inoculation after 4 days; soybean cv Kurosengoku
[11] = 200 ppm foliar spray, wheat cv APOGEE
[12] = 500 ppm foliar spray, wheat cv Apogee

SMILES | lesion area compared to the lesion area in an untreated barley [1] [%] | lesion area compared to the lesion area in an untreated kidney bean ([2]; 200 ppm foliar spray) [%] | lesion area compared to the lesion area in an untreated kidney bean ([2]; 500 ppm foliar spray) [%] | lesion area compared to the lesion area in an untreated wheat [3] [%] | lesion area compared to the lesion area in an untreated cucumber ([4]; 50 ppm foliar spray) [%] | lesion area compared to the lesion area in an untreated cucumber ([4]; 200 ppm foliar spray) [%] | lesion area compared to the lesion area in an untreated wheat [5, 11] [%] | lesion area compared to the lesion area in an untreated wheat [5, 12] [%] | lesion area compared to the lesion area in an untreated soybean [6] [%] | lesion area compared to the lesion area in an untreated soybean [7] [%] | lesion area compared to the lesion area in an untreated barley [8] [%] | lesion area compared to the lesion area in an untreated wheat ([9]; 200 ppm foliar spray) [%] | lesion area compared to the lesion area in an untreated wheat ([9]; 500 ppm foliar spray) [%] | lesion area compared to the lesion area in an untreated soybean [10] [%] | area of lesion compared to that on an untreated bean ([6]; 3.1 ppm foliar spray, soybean cv Tachinagaha)
CCC(=NN=C1CCOc2ccc(F)cc21)OCc1c(C)cccc1-n1nnn(C)c1=O [E-17] | ≤ 30 | ≤ 30 | ≤ 30 | ≤ 30 | ≤ 30 | ≤ 30 | ≤ 30 | ≤ 30 | ≤ 30 | ≤ 30 | ≤ 30 | ≤ 30 | ≤ 30 | ≤ 30 | 
CCC(=NN=C1CCOc2ccc(OC)cc21)OCc1c(C)cccc1-n1nnn(C)c1=O [E-18] | ≤ 30 |  | ≤ 30 | ≤ 30 | ≤ 30 | ≤ 30 | ≤ 30 | ≤ 30 | ≤ 30 | ≤ 30 | ≤ 30 | ≤ 30 | ≤ 30 | ≤ 30 | 
CCC(=NN=C1CCOc2cccc(F)c21)OCc1c(C)cccc1-n1nnn(C)c1=O [E-21] | ≤ 30 | ≤ 30 | ≤ 30 | ≤ 30 |  | ≤ 30 | ≤ 30 | ≤ 30 | ≤ 30 | ≤ 30 | ≤ 30 | ≤ 30 | ≤ 30 | ≤ 30 | less than 30%
CCC(=NN=C1CCOc2c(F)ccc(F)c21)OCc1c(C)cccc1-n1nnn(C)c1=O [E-27] | ≤ 30 | ≤ 30 | ≤ 30 | ≤ 30 |  | ≤ 30 | ≤ 30 | ≤ 30 | ≤ 30 | ≤ 30 | ≤ 30 | ≤ 30 |  | ≤ 30 | 
CCC(=NN=C1CCSc2ccccc21)OCc1c(C)cccc1-n1nnn(C)c1=O [E-28] | ≤ 30 | ≤ 30 | ≤ 30 | ≤ 30 | ≤ 30 | ≤ 30 | ≤ 30 | ≤ 30 | ≤ 30 | ≤ 30 | ≤ 30 | ≤ 30 |  | ≤ 30 | 
CCC(=NN=C1CCOc2cc(OC)ccc21)OCc1c(C)cccc1-n1nnn(C)c1=O [E-30] | ≤ 30 | ≤ 30 | ≤ 30 | ≤ 30 | ≤ 30 | ≤ 30 | ≤ 30 | ≤ 30 | ≤ 30 | ≤ 30 | ≤ 30 | ≤ 30 | ≤ 30 | ≤ 30 | 
